The target in this assay is catalase from bovine liver (bovine) (UniProt P00432). Kind of assay: self-interaction chromatography; the same protein immobilised and injected; pH 4.0 (and pH 5.0 for con A), NaCl below 0.30 M, 20 mM sodium acetate buffer, 0.5 mL/min, 10 uL injections; both purified.

No constants are given. Whether binding was seen depends on the method and setting.

B1: catalase from bovine liver (enzyme, UniProt P00432 1-527, looked up)
chain: MADNRDPASDQMKHWKEQRAAQKPDVLTTGGGNPVGDKLNSLTVGPRGPLLVQDVVFTDEMAHFDRERIPERVVHAKGAGAFGYFEVTHDITRYSKAKVFEHIGKRTPIAVRFSTVAGESGSADTVRDPRGFAVKFYTEDGNWDLVGNNTPIFFIRDALLFPSFIHSQKRNPQTHLKDPDMVWDFWSLRPESLHQVSFLFSDRGIPDGHRHMNGYGSHTFKLVNANGEAVYCKFHYKTDQGIKNLSVEDAARLAHEDPDYGLRDLFNAIATGNYPSWTLYIQVMTFSEAEIFPFNPFDLTKVWPHGDYPLIPVGKLVLNRNPVNYFAEVEQLAFDPSNMPPGIEPSPDKMLQGRLFAYPDTHRHRLGPNYLQIPVNCPYRARVANYQRDGPMCMMDNQGGAPNYYPNSFSAPEHQPSALEHRTHFSGDVQRFNSANDDNVTQVRTFYLKVLNEEQRKRLCENIAGHLKDAQLFIQKKAVKNFSDVHPEYGSRIQALLDKYNEEKPKNAVHTYVQHGSHLSAREKANL
notes: catalase from bovine liver, MW 250 kD, pI 5.4; Immobilised copy is coupled to Toyopearl AF-Amino-650M particles with EDC and NHS; source: bought: Sigma Aldrich (C9322)
Regarding B1, the binding entry is “no binding (condition: pH 4.0, NaCl below 0.30 M)”.

For the origin of these results see PMC4644993, “The second virial coefficient as a predictor of protein aggregation propensity: A self-interaction chromatography study” (European Journal of Pharmaceutics and Biopharmaceutics, 2015).
